Results published in PubChem BioAssay AID1439 (NMMLSC, 2008).
Values joined by “and” are separate entries in the source; they are usually repeats but may differ in a detail not shown here. Identical values can stand only once. Hit rate of the full screen: of about 220,000 compounds, about 770 (0.35%) were called active. Inconclusive means that the source gave no clear call. Such entries were picked first, then a sample of the others. No stated cut-off is given here; in the data, active means binding response below about 49% or above about 150%; inconclusive means no clear call, values can overlap the other calls; inactive means in between.

Sequences of proteins named here, by UniProt entry; tags and fusion partners are left off.
UniProt P09471, whole entry, looked up: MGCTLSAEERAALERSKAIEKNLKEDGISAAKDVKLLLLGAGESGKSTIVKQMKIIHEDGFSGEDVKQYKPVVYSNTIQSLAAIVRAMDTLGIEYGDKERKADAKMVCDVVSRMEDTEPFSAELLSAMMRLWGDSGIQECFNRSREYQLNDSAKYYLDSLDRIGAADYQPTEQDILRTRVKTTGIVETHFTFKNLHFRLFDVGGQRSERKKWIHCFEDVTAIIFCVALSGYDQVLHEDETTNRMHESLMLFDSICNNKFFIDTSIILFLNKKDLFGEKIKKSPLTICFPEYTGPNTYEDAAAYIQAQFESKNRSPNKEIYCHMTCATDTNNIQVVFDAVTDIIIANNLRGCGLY

These molecules were tested against Guanine nucleotide-binding protein G(o) subunit alpha (Homo sapiens) (UniProt P09471) (assay: RGS7-Galphao binding modulators, primary screen, biochemical, multiplexed bead flow cytometry (AID 1439;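 further: fluorescent Galphao held in activated GDP-AlF4 state binding bead-coupled RGS7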)). Settings: at 10 µM, actives lie on both sides.

| Compound | binding response (% of control) |
| --- | --- |
| CCc1ccccc1-n1nnnc1-c1cnccc1C(F)(F)F | inconclusive: 105% |
| COC(=O)N/N=C/c1cn(Cc2ccccc2F)c2ccccc12 | inconclusive: 115% |
| Cc1ccc(NC(=O)CN2C(=O)N/C(=C/c3cc(C)n(-c4ccc(C(=O)O)cc4)c3C)C2=O)cc1 | inactive: 99.9% |
| COc1ccc(S(=O)(=O)NCCN2CCNC2=O)cc1OC | inconclusive: 93.5% |
| CCOc1ccccc1NC(=O)N1CCC(c2nc3ccccc3[nH]2)CC1 | inactive: 102% |
| COC(=O)c1csc(S(=O)(=O)N2CCCCC2)c1OC | inconclusive: 116% |
| C/C(=N\NC(=O)CN(c1ccccc1)S(C)(=O)=O)c1ccccc1O | inconclusive: 79.5% |
| NN/C(=C\[N+](=O)[O-])Nc1ccc(Cl)cc1 | inactive: 95.9% |
| C=C(C)[C@@H]1CC[C@]2(C(=O)O)CC[C@]3(C)[C@H](CC[C@@H]4[C@@]5(C)CC[C@H](O)C(C)(C)[C@@H]5CC[C@]43C)[C@@H]12 | inconclusive: 99% |
| Cc1nc2cc(Cl)c(Cl)cc2n1CCCO | inconclusive: 66.6% |
| C/C(=N\NC(=O)CSc1nc2ccccc2o1)c1cccc(O)c1 | inconclusive: 95.2% |
| N=C1CCC(=N)c2c1c(O)c1ccccc1c2O | inconclusive: 63.6% |
| COC(=O)c1ccc(Nc2c([N+](=O)[O-])c(=O)oc3ccccc23)cc1 | inconclusive: 128% |
| O=C(NCCc1csc(-c2cccnc2)n1)c1c(F)cccc1F | inconclusive: 26.3% |
| Cc1ccc(-c2nn[nH]n2)o1 | active: 151% [activator] |
| Cc1ccc(NS(=O)(=O)c2cccc(C(=O)NN3CCOCC3)c2)cc1 | inconclusive: 104% |
| CCN1/C(=C/C=C/c2oc3ccc4ccccc4c3[n+]2CC)Oc2ccc3ccccc3c21 | active: 616% [activator] |
| CC1(CC(=O)N/N=C/c2cc3c(cc2Br)OCO3)OCCO1 | inactive: 108% |
| Cc1nc(N2CCOCC2)nc(N2CCCCC2C)c1[N+](=O)[O-] (stereo not given) | inconclusive: 88.7% |
| COc1cc(/C=N\NC(=O)c2cccc(Cl)c2)ccc1Oc1ccc([N+](=O)[O-])cn1 | inconclusive: -34.6% |
| C=C(C)C(=O)Nc1cccc(C2=NOC3(C2)C[C@@H](C(N)=O)N(C(=O)/C=C/C=C/C)C3)c1 (stereo not given in full) | inconclusive: 54% |
| Cc1ccc(NC(=O)COC(=O)c2cccnc2Cl)cc1S(=O)(=O)N1CCCCC1 | inconclusive: 75.8% |
| Cc1ccc(C)c(OCc2nc3ccccc3[nH]2)c1 | inconclusive: 122% |

| Compound | binding response (% of control) |
| --- | --- |
| Cc1cccc(N2CCN(C(=S)NC3CCCCC3)CC2)c1C | inconclusive: 103% |
| COC(=O)Nc1ccc(SCC(=O)c2ccc(Cl)cc2)cc1 | inconclusive: 101% |
| CCOC(=O)Nc1ccc2nc(Sc3ccc(Cl)cc3)sc2c1 | inconclusive: 91.7% |
| CC(C)n1cnc2c(Nc3cccc(F)c3)nc(NCCO)nc21 | inconclusive: 91% |
| COC(=O)c1ccc(NC(=O)Cn2nc(C)cc2C)cc1 | inactive: 97.3% |
| COCCn1c(C)cc(C(=O)COC(=O)c2ccc3ncsc3c2)c1C | active: 14.7% |
| CC(=O)c1ccc(Nc2c3c(nc4ccccc24)CCCC3)cc1 | inconclusive: 102% |
| NC(=O)c1c(NC(=O)Cn2nc(C(=O)O)c3ccccc3c2=O)sc2c1CCCC2 | inconclusive: 162% |
| Cc1ccc(S(=O)(=O)Nc2nc(C)cc(NCCN)n2)cc1 | inactive: 98.9% |
| N#CC1=C(SCC(=O)Nc2ccc(C(=O)O)cc2)NC(=O)CC1c1ccco1 (stereo not given) | inconclusive: 97.3% |
| CC(NC(=O)c1ccnn1C)C1CCCO1 (stereo not given) | inconclusive: 121% |
| Cc1nnc(-c2cnn(-c3ccccc3)c2N)n1Cc1cccc(C(F)(F)F)c1 | inactive: 103% |
| CC1NC(=O)NC1CCCCC(=O)O (stereo not given) | inactive: 102% |
| Cc1ccc(-c2nnc(SCC(=O)NC3CC3)n2N)cc1 | inconclusive: 172% |
| COc1ccc(C2=NN(C(=O)CN3CCCC3)C(c3ccc(OC)cc3)C2)cc1 (stereo not given) | inconclusive: 111% |
| Cc1ccccc1CSCc1nc(N)nc(Nc2ccccc2C)n1 | inconclusive: 106% |
| COc1cc(C2NC(=O)C(C#N)=C(Nc3cccc(C)c3)S2)ccc1O (stereo not given) | inconclusive: 77.8% and inconclusive: 126% |
| Cc1ccc(NC(=O)C(C)Sc2nnc(-c3cccnc3)n2-c2ccccc2)cc1 (stereo not given) | inactive: 101% |
| CCCCOc1ccc(CSCCN)cc1Cl | inconclusive: 100% |
| Cc1ccc(NNC(=O)c2cc(C)on2)c(C)c1 | inconclusive: 151% |
| CN(C1CC(C)(C)N(O)C(C)(C)C1)S(=O)(=O)CC12CCC(CC1=O)C2(C)C (stereo not given) | inconclusive: 89.5% |
| CCOC(=O)CSc1cc(-c2ccccc2)nc2ncnn12 | inconclusive: 30.3% |
| CCCC(C)c1nnc(NC(=O)c2cc(C(=O)OC)cc([N+](=O)[O-])c2)s1 (stereo not given) | inactive: 129% |

| Compound | binding response (% of control) |
| --- | --- |
| COc1ccc(/C=N/N2C(=O)CN(C(=O)c3ccccc3)C2c2ccc(OC)cc2)cc1 (stereo not given) | inconclusive: 112% |
| COc1cccc(-n2c(SCC(=O)Nc3nc4ccccc4s3)nc3ccccc3c2=O)c1 | inconclusive: 102% |
| CCN(CC)S(=O)(=O)c1ccc(OCC(=O)NCc2ccco2)cc1 | inconclusive: 127% |
| COc1ccc(NC(=O)c2nc[nH]c2C(=O)N[C@H](C)c2ccccc2)cc1 | inconclusive: 139% |
| COc1cccc(/C=N/NC(=O)c2ccc3nc[nH]c3c2)c1 | inconclusive: 33.5% |
| COc1cccc(/C=N/Nc2nc(-c3cccnc3)nc3ccccc23)c1 | inconclusive: 101% |
| S=c1[nH]nc(Cc2ccc(Cl)cc2)o1 | inconclusive: 79.6% |
| COc1ccc(-c2cn3ccc(C)cc3n2)cc1 | inconclusive: 73.2% |
| Cc1cc(C(=O)CSc2nncn2C)c(C)n1-c1ccccc1 | inactive: 103% |
| CCOC(=O)C(=CNc1ccc(OC)cc1[N+](=O)[O-])C(=O)OCC | inconclusive: 113% |
| CCC(=O)Nc1cc(=O)[nH]c2nc(-c3ccc(Cl)cc3)nn12 | inconclusive: 105% |
| CCNC(=S)NNC(=O)c1cc(-c2ccc(OC)cc2)nc2ccccc12 | inactive: 104% |
| CC(C)Oc1c(N2CCOCC2)c(=O)c1=O | inconclusive: 79.7% |
| O=c1c2cccnc2nc2n1CCCCC2 | inconclusive: 102% |
| CCOC(=O)c1ccc(NC(=S)N(CCN2CCCCCC2)Cc2ccco2)cc1 | inconclusive: 117% |
| CCC(C)NC(=O)C1c2cc(OC)c(OC)cc2C(=O)N(C)C1c1ccc(OC)cc1 (stereo not given) | inactive: 98.7% |
| Nc1ccc(OCC(O)C[n+]2ccc(CCS(=O)(=O)[O-])cc2)cc1 (stereo not given) | inconclusive: 104% |
| Cc1ccc(-c2nn(C)c(=O)c3ccccc23)cc1CNC(=O)c1ccccc1 | inconclusive: 56.2% |
| CCCCNC(=S)N/N=C/c1cccc(OCC)c1O | inconclusive: 75.8% |
| CCN(CC)S(=O)(=O)c1cc(NC(=O)c2cc(-c3ccccn3)nc3ccccc23)ccc1C | inconclusive: 89.1% |
| COc1cc(/C=N/NC(=O)CNc2n[nH]c(=O)[nH]c2=O)ccc1OCc1ccccc1 | inconclusive: 103% |
| C=CCN1c2ccccc2[C@]23C[C@@H](C(=O)OC)N(C(=O)C4CCC4)C2=NC(C(=O)OC)=C(C(=O)OC)[C@H]13 | inconclusive: 120% |
| COC(=O)c1sccc1NC(=O)CC1C(=O)NCCN1C(=O)Nc1ccccc1 (stereo not given) | inconclusive: 114% |

| Compound | binding response (% of control) |
| --- | --- |
| CC(C)(C)C1CCC(=NNC(=O)C(=O)NCc2cccnc2)CC1 (stereo not given) | inconclusive: 110% |
| COC(=O)c1sccc1NN1C(=O)c2ccccc2C1=O | inconclusive: 115% |
| Cc1ccc(C(=O)NC2c3ccccc3-c3ccccc32)cc1 | inactive: 143% |
| Cc1ccc2cc(CCl)c(Cl)nc2c1 | inconclusive: 97.8% |
| COCCCNC(=O)C(=O)C1C(=O)Nc2ccccc21 (stereo not given) | inconclusive: 99.1% |
| COc1cc(CO)ccc1OCC(=O)Nc1ccc(Br)cc1 | inconclusive: 92.7% |
| CN(C)CCCNc1cc(C(C)(C)C)nc2c(-c3ccccc3)cnn12 | inconclusive: 92.5% |
| Cc1ccc(-c2nn(-c3ccccc3)cc2/C=C/C(=O)O)o1 | inconclusive: 95.8% |
| C/C(CCC1CC(C)(C)OC1=O)=N\NC(N)=S (stereo not given) | inconclusive: 46.5% |
| Cc1cccc(NC(=O)COC(=O)c2cc3ccccc3oc2=O)c1 | inconclusive: 105% |
| CCOC(=O)c1ccc(NC(C)=O)c([N+](=O)[O-])c1 | inconclusive: 81.3% |
| Cc1ccc(/C=N/NC(=O)c2cc(C)oc2C)cc1 | inconclusive: 114% |
| O=c1c(Cc2c(F)cccc2Cl)c(O)ccn1CCCn1ccnc1 | inconclusive: 113% |
| CCOc1ccccc1NC(=O)[C@@H](NC(=O)c1cccc(S(=O)(=O)N2CCOCC2)c1)C(C)C | inconclusive: 105% |
| O=C(Cc1ccc(Cl)cc1)NNC1CC(=O)N(c2ccc3ccccc3c2)C1=O (stereo not given) | inconclusive: 115% |
| CCOc1ccc2nc(SCC3CC3(Cl)Cl)[nH]c2c1 (stereo not given) | inconclusive: 154% |
| CCc1cccc(C)c1NC(=S)N(CCN(C)C)C(C)c1cccnc1 (stereo not given) | inactive: 104% |
| COc1ccccc1N1CCN(C(=O)c2ccc(CN3CCOCC3)cc2)CC1 | inconclusive: 95.2% |
| O=C(c1cc2nc(-c3cccs3)cc(C(F)(F)F)n2n1)N1CCCc2ccccc21 | inactive: 105% |
| O=[N+]([O-])c1cc(C(F)(F)F)ccc1N1CCCC(O)C1 (stereo not given) | inconclusive: 122% |
| CCc1ccc(S(=O)(=O)Nc2ccc(N3CCN(C)CC3)cc2)cc1 | inconclusive: 110% |
